Assay results taken from patent US20260209319A1.
Substitutions are numbered along the chain they refer to. Results are given in words; binding and its absence hold for the method and conditions named. Some results given as binding are weak or reduced against the parent protein; the word gives no strength. Each block holds one binder with its values, some of them ahead of it.

Chains of the proteins cited; added tags and fusions are not shown. Lines headed by an entry give the natural chain unless they say otherwise; changes in a name come on top. A line that says so, or that is headed by a name, gives the form on record, which may keep a tag or linker.
mesothelin (soluble, recombinant) (Q13421, form named): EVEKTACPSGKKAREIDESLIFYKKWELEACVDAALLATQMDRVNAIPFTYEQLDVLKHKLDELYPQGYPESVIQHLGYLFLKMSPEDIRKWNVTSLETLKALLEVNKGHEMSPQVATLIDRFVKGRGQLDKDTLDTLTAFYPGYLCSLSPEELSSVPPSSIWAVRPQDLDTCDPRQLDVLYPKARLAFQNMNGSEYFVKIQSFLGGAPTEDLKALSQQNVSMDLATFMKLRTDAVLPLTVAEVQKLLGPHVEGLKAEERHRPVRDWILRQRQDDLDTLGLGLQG

What was measured:
[1] = biological target: mesothelin (soluble, recombinant) (UniProt Q13421); experiment: Octet, IgG captured on anti-human Fc (AHC) biosensor, 125 nM mesothelin, 5 min association, 5 min dissociation [panel MSLN-1]
[2] = biological target: mesothelin (soluble, recombinant) (UniProt Q13421); experiment: Octet, IgG captured on anti-human Fc (AHC) biosensor, 125 nM mesothelin, 5 min association, 5 min dissociation [panel MSLN-10]
[3] = biological target: mesothelin (soluble, recombinant) (UniProt Q13421); experiment: Octet, IgG captured on anti-human Fc (AHC) biosensor, 125 nM mesothelin, 5 min association, 5 min dissociation [panel MSLN-3]
[4] = biological target: mesothelin (soluble, recombinant) (UniProt Q13421); experiment: Octet, IgG captured on anti-human Fc (AHC) biosensor, 125 nM mesothelin, 5 min association, 5 min dissociation [panel MSLN-9]
[5] = biological target: mesothelin (soluble, recombinant) (UniProt Q13421); experiment: Octet, IgG captured on anti-human Fc (AHC) biosensor, 125 nM mesothelin, 5 min association, 5 min dissociation [panel MSLN-7]
[6] = biological target: mesothelin (soluble, recombinant) (UniProt Q13421); experiment: Octet, IgG captured on anti-human Fc (AHC) biosensor, 125 nM mesothelin, 5 min association, 5 min dissociation [panel MSLN-13]
[7] = biological target: mesothelin (soluble, recombinant) (UniProt Q13421); experiment: Octet, IgG captured on anti-human Fc (AHC) biosensor, 125 nM mesothelin, 5 min association, 5 min dissociation [panel MSLN-23]
[8] = biological target: mesothelin (soluble, recombinant) (UniProt Q13421); experiment: Octet, IgG captured on anti-human Fc (AHC) biosensor, 125 nM mesothelin, 5 min association, 5 min dissociation [panel MSLN-18]
[9] = biological target: mesothelin (soluble, recombinant) (UniProt Q13421); experiment: Octet, IgG captured on anti-human Fc (AHC) biosensor, 125 nM mesothelin, 5 min association, 5 min dissociation [panel MSLN-6]
[10] = biological target: mesothelin (soluble, recombinant) (UniProt Q13421); experiment: Octet, IgG captured on anti-human Fc (AHC) biosensor, 125 nM mesothelin, 5 min association, 5 min dissociation [panel MSLN-17]
[11] = biological target: mesothelin (soluble, recombinant) (UniProt Q13421); experiment: Octet, IgG captured on anti-human Fc (AHC) biosensor, 125 nM mesothelin, 5 min association, 5 min dissociation [con't), panel MSLN-27]
[12] = biological target: mesothelin (soluble, recombinant) (UniProt Q13421); experiment: Octet, IgG captured on anti-human Fc (AHC) biosensor, 125 nM mesothelin, 5 min association, 5 min dissociation [panel MSLN-16]
[13] = biological target: mesothelin (soluble, recombinant) (UniProt Q13421); experiment: Octet, IgG captured on anti-human Fc (AHC) biosensor, 125 nM mesothelin, 5 min association, 5 min dissociation [panel MSLN-20]
[14] = biological target: mesothelin (soluble, recombinant) (UniProt Q13421); experiment: Octet, IgG captured on anti-human Fc (AHC) biosensor, 125 nM mesothelin, 5 min association, 5 min dissociation [con't), panel MSLN-29]
[15] = biological target: mesothelin (soluble, recombinant) (UniProt Q13421); experiment: Octet, IgG captured on anti-human Fc (AHC) biosensor, 125 nM mesothelin, 5 min association, 5 min dissociation [con't), panel MSLN-30]
[16] = biological target: mesothelin (soluble, recombinant) (UniProt Q13421); experiment: Octet, IgG captured on anti-human Fc (AHC) biosensor, 125 nM mesothelin, 5 min association, 5 min dissociation [panel MSLN-2]
[17] = biological target: mesothelin (soluble, recombinant) (UniProt Q13421); experiment: Octet, IgG captured on anti-human Fc (AHC) biosensor, 125 nM mesothelin, 5 min association, 5 min dissociation [panel MSLN-19]
[18] = biological target: mesothelin (soluble, recombinant) (UniProt Q13421); experiment: Octet, IgG captured on anti-human Fc (AHC) biosensor, 125 nM mesothelin, 5 min association, 5 min dissociation [panel MSLN-11]
[19] = biological target: mesothelin (soluble, recombinant) (UniProt Q13421); experiment: Octet, IgG captured on anti-human Fc (AHC) biosensor, 125 nM mesothelin, 5 min association, 5 min dissociation [con't), panel MSLN-31]
[20] = biological target: mesothelin (soluble, recombinant) (UniProt Q13421); experiment: Octet, IgG captured on anti-human Fc (AHC) biosensor, 125 nM mesothelin, 5 min association, 5 min dissociation [panel MSLN-22]
[21] = biological target: mesothelin (soluble, recombinant) (UniProt Q13421); experiment: Octet, IgG captured on anti-human Fc (AHC) biosensor, 125 nM mesothelin, 5 min association, 5 min dissociation [con't), panel MSLN-32]
[22] = biological target: mesothelin (soluble, recombinant) (UniProt Q13421); experiment: Octet, IgG captured on anti-human Fc (AHC) biosensor, 125 nM mesothelin, 5 min association, 5 min dissociation [con't), panel MSLN-26]
[23] = biological target: mesothelin (soluble, recombinant) (UniProt Q13421); experiment: Octet, IgG captured on anti-human Fc (AHC) biosensor, 125 nM mesothelin, 5 min association, 5 min dissociation [panel MSLN-5]
[24] = biological target: mesothelin (soluble, recombinant) (UniProt Q13421); experiment: Octet, IgG captured on anti-human Fc (AHC) biosensor, 125 nM mesothelin, 5 min association, 5 min dissociation [panel MSLN-15]
[25] = biological target: mesothelin (soluble, recombinant) (UniProt Q13421); experiment: Octet, IgG captured on anti-human Fc (AHC) biosensor, 125 nM mesothelin, 5 min association, 5 min dissociation [panel MSLN-14]
[26] = biological target: mesothelin (soluble, recombinant) (UniProt Q13421); experiment: Octet, IgG captured on anti-human Fc (AHC) biosensor, 125 nM mesothelin, 5 min association, 5 min dissociation [con't), panel MSLN-25]

B1: MSLN-1 (antibody, V domains shown)
VH: QVQLQESGPGLVKPSETLSLTCTVSGGSVSSYHDLWSWIRQPPGKGLEWIGYIYYSGSTNYNPSLKSRVTISVDTSKNQFSLKLSSVTAADTAVYYCAREDALTGFDIWGQGTMVTVSS
VL: DIQMTQSPSSLSASVGDRVTITCRASQSISSYLNWYQQKPGKAPKLLIYAASSLQSGVPSRFSGSGSGTDFTLTISSLQPEDFATYYCQQSYDASYTFGGGTKVEIK
- binding [1]: binds

B2: MSLN-10 (antibody, V domains shown)
VH: B1 VH with Y32R, H33D, E100D, D101N, A102V, L103F
VL: B1 VL
- binding [2]: binds

B3: MSLN-3 (antibody, V domains shown)
VH: B1 VH with Y32F, H33T, L35T
VL: B1 VL
- binding [3]: binds

B4: MSLN-9 (antibody, V domains shown)
VH: B1 VH with E100D, D101N, A102V, L103F
VL: B1 VL
- binding [4]: binds

B5: MSLN-7 (antibody, V domains shown)
VH: B1 VH with Y32F, H33T, L35T, E100D, D101F, A102V, T104S
VL: B1 VL
- binding [5]: binds

B10: MSLN-17 (antibody, V domains shown)
VH: B1 VH with E100D, D101F, A102V, T104S
VL: B1 VL with I29S, S30R, S31Y, L33V, S91P
- binding [10]: binds

B13: MSLN-20 (antibody, V domains shown)
VH: B1 VH with H33Y, D34S, L35T, E100D, D101F, A102V, T104S
VL: B1 VL with I29S, S30R, S31Y, L33V, S91P
- binding [13]: binds

B14: MSLN-29 (antibody, V domains shown)
VH: B1 VH with E100D, D101F, A102V, T104S
VL: B1 VL with S91P
- binding [14]: binds

B15: MSLN-30 (antibody, V domains shown)
VH: B1 VH with Y32R, H33D, E100D, D101F, A102V, T104S
VL: B1 VL with S91P
- binding [15]: binds

B18: MSLN-11 (antibody, V domains shown)
VH: B1 VH with Y32F, H33T, L35T, E100D, D101N, A102V, L103F
VL: B1 VL
- binding [18]: binds

B19: MSLN-31 (antibody, V domains shown)
VH: QVQLQESGPGLVKPSETLSLTCTVSGGSVSSFTDTWSWIRQPPGKGLEWIGYIYYSGSTNYNPSLKSRVTISVDTSKNQFSLKLSSVTAADTAVYYCARDFVLSGFDIWGQGTMV
VL: B1 VL with S91P
- binding [19]: binds

B20: MSLN-22 (antibody, V domains shown)
VH: B1 VH with Y32R, H33D, E100D, D101N, A102V, L103F
VL: B1 VL with I29S, S30R, S31Y, L33V, S91P
- binding [20]: binds

B21: MSLN-32 (antibody, V domains shown)
VH: B1 VH with H33Y, D34S, L35T, E100D, D101F, A102V, T104S
VL: B1 VL with S91P
- binding [21]: binds

B24: MSLN-15 (antibody, V domains shown)
VH: B1 VH with Y32F, H33T, L35T
VL: B1 VL with I29S, S30R, S31Y, L33V, S91P
- binding [24]: binds

B26: MSLN-25 (antibody, V domains shown)
VH: B1 VH
VL: B1 VL with S91P
- binding [26]: binds

Further lines, results first:

- binding [6]: binds
B6: MSLN-13 (antibody, V domains shown)
VH: B1 VH
VL: B1 VL with I29S, S30R, S31Y, L33V, S91P

- binding [7]: binds
B7: MSLN-23 (antibody, V domains shown)
VH: B1 VH with Y32F, H33T, L35T, E100D, D101N, A102V, L103F
VL: B1 VL with I29S, S30R, S31Y, L33V, S91P

- binding [8]: binds
B8: MSLN-18 (antibody, V domains shown)
VH: B1 VH with Y32R, H33D, E100D, D101F, A102V, T104S
VL: B1 VL with I29S, S30R, S31Y, L33V, S91P

- binding [9]: binds
B9: MSLN-6 (antibody, V domains shown)
VH: B1 VH with Y32R, H33D, E100D, D101F, A102V, T104S
VL: B1 VL

- binding [11]: binds
B11: MSLN-27 (antibody, V domains shown)
VH: B1 VH with Y32F, H33T, L35T
VL: B1 VL with S91P

- binding [12]: binds
B12: MSLN-16 (antibody, V domains shown)
VH: B1 VH with H33Y, D34S, L35T
VL: B1 VL with I29S, S30R, S31Y, L33V, S91P

- binding [16]: binds
B16: MSLN-2 (antibody, V domains shown)
VH: B1 VH with Y32R, H33D
VL: B1 VL

- binding [17]: binds
B17: MSLN-19 (antibody, V domains shown)
VH: B1 VH with Y32F, H33T, L35T, E100D, D101F, A102V, T104S
VL: B1 VL with I29S, S30R, S31Y, L33V, S91P

- binding [22]: binds
B22: MSLN-26 (antibody, V domains shown)
VH: B1 VH with Y32R, H33D
VL: B1 VL with S91P

- binding [23]: binds
B23: MSLN-5 (antibody, V domains shown)
VH: B1 VH with E100D, D101F, A102V, T104S
VL: B1 VL

- binding [25]: binds
B25: MSLN-14 (antibody, V domains shown)
VH: B1 VH with Y32R, H33D
VL: B1 VL with I29S, S30R, S31Y, L33V, S91P
